# From the supplement of paper PMC12024529
# Structures can show the parent of a compound that is named as a salt. Some of the results follow. Baselines shift from plate to plate; read single values as rough.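 The cells are HEK293 lines stably expressing B-domain-deleted factor VIII fused to Gaussia luciferase, either wild type or a misfolding-prone missense mutant. Each score is mean luminescence from triplicate wells minus the DMSO mean, divided by the DMSO standard deviation; a score of 2 or more counts as a hit, and low scores may reflect lower secretion or poorer cell viability.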
# What was measured:
# HEK293 WT BDD-FVIII-Gluc = experiment: secreted FVIII-Gluc luciferase Z-score vs DMSO control; higher = more FVIII-Gluc secretion; conditions: 5 µM; 24 h
# [1] = tested on: HEK293 p.N1941S BDD-FVIII-Gluc; experiment: as above; conditions: 5 µM; 24 h
Structure (SMILES),secreted FVIII-Gluc luciferase Z-score (HEK293 WT BDD-FVIII-Gluc),secreted FVIII-Gluc luciferase Z-score [1]
CC1=C(/C=C/C(C)=C/C=C/C(C)=C/C=C/C=C(C)/C=C/C=C(C)/C=C/C2=C(C)CCCC2(C)C)C(C)(C)CCC1 [Beta Carotene],inactive: -1.69,inactive: 0.00802
CC1(C)[C@@H](OC(=O)CCC(=O)O)CC[C@]2(C)[C@H]3C(=O)C=C4[C@@H]5C[C@@](C)(C(=O)O)CC[C@]5(C)CC[C@@]4(C)[C@]3(C)CC[C@@H]12 [Carbenoxolone Sodium],inactive: 0.0331,inactive: 1.07
CNCC[C@H](Oc1cccc2ccccc12)c1cccs1 [Duloxetine HCl (Cymbalta)],inactive: -1.34,inactive: -2.18
CNC[C@H](O)c1cccc(O)c1 [Phenylephrine HCl],inactive: 0.226,inactive: -1.8
CCCN(CCC)CCc1cccc2c1CC(=O)N2 [Ropinirole HCl],inactive: -1.11,inactive: 0.694
CN1C(C(=O)Nc2ccccn2)=C(O)c2ccccc2S1(=O)=O [Piroxicam (Feldene)],inactive: -0.817,inactive: -0.379
Cc1noc(NS(=O)(=O)c2ccc(N)cc2)c1C [Sulfisoxazole],inactive: -2.68,active: 3.99
CCN1CCCC1CNC(=O)c1cc(S(=O)(=O)CC)c(N)cc1OC (stereo not drawn) [Amisulpride],inactive: -0.309,inactive: -1.33
CC(C)(Oc1ccc(Cl)cc1)C(=O)O [Clofibric acid],inactive: 0.473,active: 2.23
COc1ccc2[nH]c([S@@+]([O-])Cc3ncc(C)c(OC)c3C)nc2c1 [Esomeprazole sodium (Nexium)],inactive: 0.355,inactive: -0.521
CCCc1nc2c(C)cc(-c3nc4ccccc4n3C)cc2n1Cc1ccc(-c2ccccc2C(=O)O)cc1 [Telmisartan (Micardis)],inactive: -0.535,inactive: 0.9
N=C(N)N/N=C/c1c(Cl)cccc1Cl [Guanabenz acetate],inactive: -0.268,inactive: -0.769
C[C@]12CC[C@@H]3c4ccc(O)cc4CC[C@H]3[C@@H]1CCC2=O [Estrone],inactive: -0.532,inactive: 1.09
CC(C)c1nc(CN(C)C(=O)N[C@H](C(=O)N[C@@H](Cc2ccccc2)C[C@H](O)[C@H](Cc2ccccc2)NC(=O)OCc2cncs2)C(C)C)cs1 [Ritonavir],inactive: -0.261,inactive: -4.53
CO/N=C(\C(=O)N[C@@H]1C(=O)N2C(C(=O)OCOC(=O)C(C)(C)C)=C(/C=C\c3scnc3C)CS[C@H]12)c1csc(N)n1 [Cefditoren pivoxil],inactive: -2.93,inactive: 0.772
CCOC(=O)[C@H](CCc1ccccc1)N[C@@H](C)C(=O)N1CCC[C@H]1C(=O)O [Enalapril maleate (Vasotec)],inactive: -2.65,inactive: 0.111
CN(C)CCC=C1c2ccccc2CCc2ccccc21 [Amitriptyline HCl],inactive: -0.784,inactive: -0.612
O=c1[nH]c(=O)n([C@H]2C[C@H](O)[C@@H](CO)O2)cc1C(F)(F)F [Trifluridine (Viroptic)],inactive: -7.08,inactive: -2.92
Cc1ccc(C(=O)C(C)CN2CCCCC2)cc1 (stereo not drawn) [Tolperisone HCl],inactive: 0.602,inactive: -0.276
CC(C)(C)c1ccc(C(O)CCCN2CCC(C(O)(c3ccccc3)c3ccccc3)CC2)cc1 (stereo not drawn) [Terfenadine],inactive: -2.2,inactive: 0.81
Nc1nc2c(ncn2COC(CO)CO)c(=O)[nH]1 [Ganciclovir],inactive: -1.59,inactive: -3.86
CC(C)NC[C@H](O)COc1ccc(CCOCC2CC2)cc1 [Levobetaxolol HCl],inactive: -0.382,inactive: -1.13
O=C(N[C@H](CO)[C@H](O)c1ccc([N+](=O)[O-])cc1)C(Cl)Cl [Chloramphenicol (Chloromycetin)],inactive: -0.562,inactive: 0.921
CC(=O)[C@]1(O)Cc2c(O)c3c(c(O)c2[C@@H](O[C@H]2C[C@H](N)[C@H](O)[C@H](C)O2)C1)C(=O)c1ccccc1C3=O [Idarubicin HCl],inactive: -1.92,inactive: -10.9
Nc1[nH]cnc2ncnc1-2 [Adenine hydrochloride],inactive: -1.53,inactive: -0.999
N#Cc1ccc(C(c2ccc(C#N)cc2)n2cncn2)cc1 [Letrozole],inactive: -0.946,inactive: -0.796
C[C@H]1C[C@H]2[C@@H]3CCC4=CC(=O)C=C[C@]4(C)[C@@]3(F)[C@@H](O)C[C@]2(C)[C@@]1(O)C(=O)CO [Betamethasone (Celestone)],active: 15.7,active: 5.19

Structure (SMILES),secreted FVIII-Gluc luciferase Z-score (HEK293 WT BDD-FVIII-Gluc),secreted FVIII-Gluc luciferase Z-score [1]
O=C(NCCN1CCOCC1)c1ccc(Cl)cc1 [Moclobemide],inactive: 0.301,inactive: -1.39
O=c1[nH]c(=O)n([C@H]2C[C@H](O)[C@@H](CO)O2)cc1I [Idoxuridine],inactive: -0.929,inactive: -0.38
O=C(O)c1ccc(-n2nc(-c3ccccc3O)nc2-c2ccccc2O)cc1 [Deferasirox (Exjade)],inactive: -3.01,inactive: -3.97
O=C1OC(CN2CCOCC2)CN1/N=C/c1ccc([N+](=O)[O-])o1 (stereo not drawn) [Furaltadone HCl],inactive: 0.41,inactive: 0.661
Cc1ccccc1C(OCCN(C)C)c1ccccc1 (stereo not drawn) [Orphenadrine citrate (Norflex)],inactive: -1.88,inactive: -1.58
CCCN1CCCC[C@H]1C(=O)Nc1c(C)cccc1C [Ropivacaine HCl],inactive: -0.769,inactive: 0.681
C[C@]12C=CC(=O)C=C1CC[C@H]1[C@@H]3C[C@@H](O)[C@](O)(C(=O)CO)[C@@]3(C)C[C@H](O)[C@@]12F [Triamcinolone (Aristocort)],inactive: 1.76,active: 4.32
CC(=O)Oc1cc2c(s1)CCN(C(C(=O)C1CC1)c1ccccc1F)C2 (stereo not drawn) [Prasugrel (Effient)],inactive: 1.44,inactive: -1.04
COc1ccc(CN(CCN(C)C)c2ccccn2)cc1 [Pyrilamine Maleate],inactive: -0.637,inactive: 1.53
C[N+](C)(C)CCO.[Cl-] [Choline Chloride],inactive: -1.67,inactive: 1.38
CC(C)C[C@H](NC(=O)[C@H](CCc1ccccc1)NC(=O)CN1CCOCC1)C(=O)N[C@@H](Cc1ccccc1)C(=O)N[C@@H](CC(C)C)C(=O)[C@@]1(C)CO1 [Carfilzomib (PR-171)],inactive: -14.7,inactive: -3.22
COc1cc2ncnc(Nc3ccc(F)c(Cl)c3)c2cc1OCCCN1CCOCC1 [Gefitinib (Iressa)],inactive: -1.43,inactive: -4.2
CNC(=O)c1cc(Oc2ccc(NC(=O)Nc3ccc(Cl)c(C(F)(F)F)c3)cc2)ccn1 [Sorafenib (Nexavar)],inactive: -2.84,inactive: -9.15
CN(C(=O)CN(CCO)CC(=O)N(C)C(C)(C)Cc1ccccc1)C(C)(C)Cc1ccccc1 [Oxethazaine],inactive: -0.965,inactive: 0.253
Cc1c(-c2ccccc2)oc2c(C(=O)OCCN3CCCCC3)cccc2c1=O [Flavoxate HCl],inactive: -1.04,inactive: 0.28
CC[C@H](C)C(=O)O[C@H]1CCC=C2C=C[C@H](C)[C@H](CC[C@@H]3C[C@@H](O)CC(=O)O3)[C@H]21 [Mevastatin],inactive: -1.46,inactive: -0.018
CC1CNc2c(cccc2S(=O)(=O)N[C@@H](CCCNC(=N)N)C(=O)N2CC[C@@H](C)C[C@@H]2C(=O)O)C1 (stereo partly drawn) [Argatroban],inactive: -1.29,inactive: -0.63
CCC(=O)O[C@]1(C(=O)CCl)[C@@H](C)C[C@H]2[C@@H]3C[C@H](F)C4=CC(=O)C=C[C@]4(C)[C@@]3(F)[C@@H](O)C[C@@]21C [Halobetasol Propionate],active: 6.37,active: 3.27
CN1CCN(C2=Nc3cc(Cl)ccc3Nc3ccccc32)CC1 [Clozapine (Clozaril)],inactive: -0.688,inactive: -1.85
CN[C@H]1CC[C@@H](c2ccc(Cl)c(Cl)c2)c2ccccc21 [Sertraline HCl],inactive: -0.159,inactive: -1.87
CCOc1ccccc1OC(c1ccccc1)C1CNCCO1 (stereo not drawn) [Reboxetine mesylate],inactive: -1.21,inactive: -3.67
CN(C)CC/C=C1/c2ccccc2COc2ccc(CC(=O)O)cc21 [Olopatadine hydrochloride (Opatanol)],active: 2.08,inactive: -1.13
N=C(N)NC(=N)NCCc1ccccc1 [Phenformin hydrochloride],inactive: 1.47,inactive: -0.889
COc1ccc2[nH]cc(CCNC(C)=O)c2c1 [Melatonin],inactive: -0.781,inactive: 1.07
C[C@]12CCC(=O)C=C1[C@@H]1C[C@@H]1[C@H]1[C@@H]3[C@@H]4C[C@@H]4[C@@]4(CCC(=O)O4)[C@@]3(C)CC[C@@H]12 [Drospirenone],inactive: -6.55,inactive: -0.537
CC(C)[N+]1(C)[C@@H]2CC[C@H]1C[C@@H](OC(=O)C(CO)c1ccccc1)C2 (stereo partly drawn) [Ipratropium bromide],inactive: -3.03,inactive: -0.179
CN1CCN(CCCN2c3ccccc3Sc3ccc(C(F)(F)F)cc32)CC1 [Trifluoperazine 2HCl],inactive: -1.1,inactive: -3.63

# Taken from above.
# secreted FVIII-Gluc luciferase Z-score (HEK293 WT BDD-FVIII-Gluc), `O=C(O)c1ccc(-n2nc(-c3ccccc3O)nc2-c2ccccc2O)cc1` [Deferasirox (Exjade)] reads inactive: -3.01
# secreted FVIII-Gluc luciferase Z-score (HEK293 WT BDD-FVIII-Gluc), `CC(C)[N+]1(C)[C@@H]2CC[C@H]1C[C@@H](OC(=O)C(CO)c1ccccc1)C2` (stereo partly drawn) [Ipratropium bromide] reads inactive: -3.03
